According to article PMC3491396:
No constants are given. Whether binding was seen depends on the method and setting. Binding seen in cells or lysates may run through a third protein. A result given as binding can be weak or reduced; the word gives no strength.

Sequences of proteins named here, by UniProt entry; tags and fusion partners are left off. A change or cut given only in a name is not applied to a line headed by its entry.
UniProt Q9NQB0: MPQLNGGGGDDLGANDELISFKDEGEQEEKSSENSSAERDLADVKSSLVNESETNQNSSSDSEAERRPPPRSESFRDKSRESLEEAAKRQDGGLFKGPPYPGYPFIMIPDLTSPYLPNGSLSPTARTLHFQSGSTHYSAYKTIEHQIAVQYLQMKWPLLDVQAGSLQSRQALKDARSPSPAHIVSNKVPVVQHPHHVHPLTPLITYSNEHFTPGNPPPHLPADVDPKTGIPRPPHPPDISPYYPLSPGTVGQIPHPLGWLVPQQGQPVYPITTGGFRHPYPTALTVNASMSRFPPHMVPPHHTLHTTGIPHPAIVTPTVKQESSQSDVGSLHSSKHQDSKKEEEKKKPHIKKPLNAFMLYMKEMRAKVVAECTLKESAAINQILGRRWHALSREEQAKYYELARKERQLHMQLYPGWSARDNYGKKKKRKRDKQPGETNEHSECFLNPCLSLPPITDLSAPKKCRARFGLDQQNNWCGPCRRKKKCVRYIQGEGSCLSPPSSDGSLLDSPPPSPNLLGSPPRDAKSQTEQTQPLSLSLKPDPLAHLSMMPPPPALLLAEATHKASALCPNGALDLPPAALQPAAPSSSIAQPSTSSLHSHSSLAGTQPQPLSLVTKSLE
UniProt P23771: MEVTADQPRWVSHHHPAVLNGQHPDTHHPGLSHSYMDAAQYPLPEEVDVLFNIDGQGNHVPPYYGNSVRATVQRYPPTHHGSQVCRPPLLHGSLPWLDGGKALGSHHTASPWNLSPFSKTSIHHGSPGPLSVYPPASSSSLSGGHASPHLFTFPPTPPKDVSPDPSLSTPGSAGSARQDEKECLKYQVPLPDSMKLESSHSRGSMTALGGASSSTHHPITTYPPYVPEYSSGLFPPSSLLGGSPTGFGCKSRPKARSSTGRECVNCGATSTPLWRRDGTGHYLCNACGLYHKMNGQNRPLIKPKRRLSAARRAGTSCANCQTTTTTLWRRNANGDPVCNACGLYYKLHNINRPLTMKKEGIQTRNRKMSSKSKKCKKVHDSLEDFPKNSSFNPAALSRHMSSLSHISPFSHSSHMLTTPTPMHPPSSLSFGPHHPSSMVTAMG

Molecular target: FLAG-tagged full-length TCF7L2 (the E-isoform) (human) (UniProt Q9NQB0)
Assay: co-IP; anti-FLAG M2 agarose immunoprecipitation of extracts of MCF7 cells transfected with FLAG-TCF7L2 constructs; NP-40 lysis buffer (PBS, 0.25% NP-40, 0.1% sodium deoxycholate), 4 hours at 4°C; western blot with anti-GATA3 and anti-FLAG

- binding: binds
Substance: GATA3 (GATA binding protein 3) (from UniProt P23771 1-443)
